# According to the supplement of paper PMC8728848:
# This is one part of the list.
# B1: FimA-N2 (Actinomyces oris) (protein)
# chain: MHHHHHHSSGVDLGTENLYFQSNAWIYDVNVYPKNEAIDVDKTIQAQKLNGYGVGSLIKFPVESTAPTLDAKSFYKYFQLKDTLDERLSEVTATDVSLEGTPLQPTDYKVETKQQTVTVTFTAEGLKKIKAAPGKKVSAVFQGKVTKAGNGAITNRAQVISDTLYAEQPPTPETPPTDPENPPTSDEVISRWGDLSIKKVDTHQQGQTKA
# How the values were obtained:
# Assay in all cases: glycan array binding signal (z-score within array); higher = stronger binding
# Conditions in all cases: glycan notation: IUPAC condensed, linker removed
# [1] = biological target: Fuc(a1-2)Gal6S(b1-3)GlcNAc6S
# How it was run: (§1)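 Negative Z-scores can be read as non-binding. The Z-score is calculated within each array and then averaged across arrays of one protein sequence at different concentrations or buffers and across linkers. Arrays, 3228 in all, were curated from the Consortium for Functional Glycomics database and kept only where the protein sequence was available.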
# [2] = biological target: Fuc(a1-2)Gal6S(b1-4)Glc
# How it was run: as §1
# [3] = biological target: Fuc(a1-2)Gal6S(b1-4)Glc6S
# How it was run: as §1
# [4] = biological target: Fuc(a1-2)[Gal(a1-3)]Gal
# How it was run: as §1
# [5] = biological target: Fuc(a1-2)[Gal(a1-3)]Gal(b1-3)GalNAc
# How it was run: as §1
# [6] = biological target: Fuc(a1-2)[Gal(a1-3)]Gal(b1-3)GalNAc(b1-3)Gal(a1-4)Gal(b1-4)Glc
# How it was run: as §1
# [7] = biological target: Fuc(a1-2)[Gal(a1-3)]Gal(b1-3)GlcNAc
# How it was run: as §1
# [8] = biological target: Fuc(a1-2)[Gal(a1-3)]Gal(b1-3)GlcNAc(b1-2)Man(a1-3)[Fuc(a1-2)[Gal(a1-3)]Gal(b1-3)GlcNAc(b1-2)Man(a1-6)]Man(b1-4)GlcNAc(b1-4)GlcNAc
# How it was run: as §1
# [9] = biological target: Fuc(a1-2)[Gal(a1-3)]Gal(b1-3)GlcNAc(b1-2)Man(a1-3)[Fuc(a1-2)[Gal(a1-3)]Gal(b1-3)GlcNAc(b1-2)Man(a1-6)]Man(b1-4)GlcNAc(b1-4)[Fuc(a1-6)]GlcNAc
# How it was run: as §1
# [10] = biological target: Fuc(a1-2)[Gal(a1-3)]Gal(b1-3)GlcNAc(b1-3)GalNAc
# How it was run: as §1
# [11] = biological target: Fuc(a1-2)[Gal(a1-3)]Gal(b1-3)GlcNAc(b1-6)GalNAc
# How it was run: as §1
# [12] = biological target: Fuc(a1-2)[Gal(a1-3)]Gal(b1-4)Glc
# How it was run: as §1
# [13] = biological target: Fuc(a1-2)[Gal(a1-3)]Gal(b1-4)GlcNAc
# How it was run: as §1
# [14] = biological target: Fuc(a1-2)[Gal(a1-3)]Gal(b1-4)GlcNAc(b1-2)Man
# How it was run: as §1
# [15] = biological target: Fuc(a1-2)[Gal(a1-3)]Gal(b1-4)GlcNAc(b1-2)Man(a1-3)[Fuc(a1-2)[Gal(a1-3)]Gal(b1-4)GlcNAc(b1-2)Man(a1-6)]Man(b1-4)GlcNAc(b1-4)GlcNAc
# How it was run: as §1
# [16] = biological target: Fuc(a1-2)[Gal(a1-3)]Gal(b1-4)GlcNAc(b1-2)Man(a1-3)[Fuc(a1-2)[Gal(a1-3)]Gal(b1-4)GlcNAc(b1-2)Man(a1-6)]Man(b1-4)GlcNAc(b1-4)[Fuc(a1-6)]GlcNAc
# How it was run: as §1
# [17] = biological target: Fuc(a1-2)[Gal(a1-3)]Gal(b1-4)GlcNAc(b1-3)GalNAc
# How it was run: as §1
# [18] = biological target: Fuc(a1-2)[Gal(a1-3)]Gal(b1-4)GlcNAc(b1-3)[Fuc(a1-2)[Gal(a1-3)]Gal(b1-4)GlcNAc(b1-6)]GalNAc
# How it was run: as §1
# [19] = biological target: Fuc(a1-2)[Gal(a1-3)]Gal(b1-4)GlcNAc(b1-6)GalNAc
# How it was run: as §1
# [20] = biological target: Fuc(a1-2)[Gal(a1-3)]Gal(b1-4)[Fuc(a1-3)]Glc
# How it was run: as §1
# [21] = biological target: Fuc(a1-2)[Gal(a1-3)]Gal(b1-4)[Fuc(a1-3)]GlcNAc
# How it was run: as §1
# [22] = biological target: Fuc(a1-2)[Gal(a1-3)]Gal(b1-4)[Fuc(a1-3)]GlcNAc(b1-3)GalNAc
# How it was run: as §1
# [23] = biological target: Fuc(a1-2)[Gal(a1-4)]Gal(b1-4)GlcNAc
# How it was run: as §1
# [24] = biological target: Fuc(a1-2)[GalNAc(a1-3)]Gal
# How it was run: as §1
# [25] = biological target: Fuc(a1-2)[GalNAc(a1-3)]Gal(b1-3)GalNAc(a1-3)[Fuc(a1-2)]Gal(b1-4)GlcNAc
# How it was run: as §1
# [26] = biological target: Fuc(a1-2)[GalNAc(a1-3)]Gal(b1-3)GalNAc(b1-3)Gal(a1-4)Gal(b1-4)Glc
# How it was run: as §1
# [27] = biological target: Fuc(a1-2)[GalNAc(a1-3)]Gal(b1-3)GlcNAc
# How it was run: as §1
# [28] = biological target: Fuc(a1-2)[GalNAc(a1-3)]Gal(b1-3)GlcNAc(b1-2)Man(a1-3)[Fuc(a1-2)[GalNAc(a1-3)]Gal(b1-3)GlcNAc(b1-2)Man(a1-6)]Man(b1-4)GlcNAc(b1-4)GlcNAc
# How it was run: as §1
# [29] = biological target: Fuc(a1-2)[GalNAc(a1-3)]Gal(b1-3)GlcNAc(b1-2)Man(a1-3)[Fuc(a1-2)[GalNAc(a1-3)]Gal(b1-3)GlcNAc(b1-2)Man(a1-6)]Man(b1-4)GlcNAc(b1-4)[Fuc(a1-6)]GlcNAc
# How it was run: as §1
# [30] = biological target: Fuc(a1-2)[GalNAc(a1-3)]Gal(b1-3)GlcNAc(b1-3)GalNAc
# How it was run: as §1
# [31] = biological target: Fuc(a1-2)[GalNAc(a1-3)]Gal(b1-3)GlcNAc(b1-6)GalNAc
# How it was run: as §1
# [32] = biological target: Fuc(a1-2)[GalNAc(a1-3)]Gal(b1-4)Glc
# How it was run: as §1
# [33] = biological target: Fuc(a1-2)[GalNAc(a1-3)]Gal(b1-4)GlcNAc
# How it was run: as §1
# [34] = biological target: Fuc(a1-2)[GalNAc(a1-3)]Gal(b1-4)GlcNAc(b1-2)Man
# How it was run: as §1
# [35] = biological target: Fuc(a1-2)[GalNAc(a1-3)]Gal(b1-4)GlcNAc(b1-2)Man(a1-3)[Fuc(a1-2)[GalNAc(a1-3)]Gal(b1-4)GlcNAc(b1-2)Man(a1-6)]Man(b1-4)GlcNAc(b1-4)GlcNAc
# How it was run: as §1
# [36] = biological target: Fuc(a1-2)[GalNAc(a1-3)]Gal(b1-4)GlcNAc(b1-2)Man(a1-3)[Fuc(a1-2)[GalNAc(a1-3)]Gal(b1-4)GlcNAc(b1-2)Man(a1-6)]Man(b1-4)GlcNAc(b1-4)[Fuc(a1-6)]GlcNAc
# How it was run: as §1
# [37] = biological target: Fuc(a1-2)[GalNAc(a1-3)]Gal(b1-4)GlcNAc(b1-3)Gal(b1-4)GlcNAc
# How it was run: as §1
# [38] = biological target: Fuc(a1-2)[GalNAc(a1-3)]Gal(b1-4)GlcNAc(b1-3)Gal(b1-4)GlcNAc(b1-3)Gal(b1-4)GlcNAc
# How it was run: as §1
# [39] = biological target: Fuc(a1-2)[GalNAc(a1-3)]Gal(b1-4)GlcNAc(b1-3)GalNAc
# How it was run: as §1
# [40] = biological target: Fuc(a1-2)[GalNAc(a1-3)]Gal(b1-4)GlcNAc(b1-3)[Fuc(a1-2)[GalNAc(a1-3)]Gal(b1-4)GlcNAc(b1-6)]GalNAc
# How it was run: as §1
# [41] = biological target: Fuc(a1-2)[GalNAc(a1-3)]Gal(b1-4)GlcNAc(b1-6)GalNAc
# How it was run: as §1
# [42] = biological target: Fuc(a1-2)[GalNAc(a1-3)]Gal(b1-4)[Fuc(a1-3)]GlcNAc
# How it was run: as §1
# [43] = biological target: Fuc(a1-2)[GalNAc(a1-3)]Gal(b1-4)[Fuc(a1-3)]GlcNAc(b1-3)GalNAc
# How it was run: as §1
# [44] = biological target: Fuc(a1-2)[GalNAc(a1-4)]Gal(b1-4)GlcNAc
# How it was run: as §1
# [45] = biological target: Fuc(a1-2)[GalNAc(b1-3)]Gal
# How it was run: as §1
binder,measurement,setting,value
B1,glycan array binding signal (z-score),[1],3.98
same,glycan array binding signal (z-score),[2],-0.601
same,glycan array binding signal (z-score),[3],1.12
same,glycan array binding signal (z-score),[4],1.78
same,glycan array binding signal (z-score),[5],-0.738
same,glycan array binding signal (z-score),[6],-0.132
same,glycan array binding signal (z-score),[7],-0.75
same,glycan array binding signal (z-score),[8],-0.1
same,glycan array binding signal (z-score),[9],-0.838
same,glycan array binding signal (z-score),[10],0.316
same,glycan array binding signal (z-score),[11],-1.22
same,glycan array binding signal (z-score),[12],-1.44
same,glycan array binding signal (z-score),[13],-0.176
same,glycan array binding signal (z-score),[14],-1.29
same,glycan array binding signal (z-score),[15],0.761
same,glycan array binding signal (z-score),[16],1.74
same,glycan array binding signal (z-score),[17],0.196
same,glycan array binding signal (z-score),[18],-1.01
same,glycan array binding signal (z-score),[19],2.61
same,glycan array binding signal (z-score),[20],-0.509
same,glycan array binding signal (z-score),[21],0.729
same,glycan array binding signal (z-score),[22],-1.56
same,glycan array binding signal (z-score),[23],-0.605
same,glycan array binding signal (z-score),[24],-0.569
same,glycan array binding signal (z-score),[25],0.055
same,glycan array binding signal (z-score),[26],-1.11
same,glycan array binding signal (z-score),[27],0.353
same,glycan array binding signal (z-score),[28],-0.122
same,glycan array binding signal (z-score),[29],-0.909
same,glycan array binding signal (z-score),[30],-1.13
same,glycan array binding signal (z-score),[31],-0.945
same,glycan array binding signal (z-score),[32],0.541
same,glycan array binding signal (z-score),[33],-0.441
same,glycan array binding signal (z-score),[34],-0.337
same,glycan array binding signal (z-score),[35],-0.71
same,glycan array binding signal (z-score),[36],-0.545
same,glycan array binding signal (z-score),[37],0.271
same,glycan array binding signal (z-score),[38],-0.199
same,glycan array binding signal (z-score),[39],0.076
same,glycan array binding signal (z-score),[40],-1.05
same,glycan array binding signal (z-score),[41],-1.5
same,glycan array binding signal (z-score),[42],-0.592
same,glycan array binding signal (z-score),[43],-0.366
same,glycan array binding signal (z-score),[44],0.482
same,glycan array binding signal (z-score),[45],0.955

# Looked up one by one from the list above, 3 records:
binder,measurement,setting,value
B1,glycan array binding signal (z-score),[29],-0.909
same,glycan array binding signal (z-score),[40],-1.05
same,glycan array binding signal (z-score),[3],1.12
